Experimental data: PubChem BioAssay AID1259308 (NCATS, 2017)

Assay: 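Candidate targets for better recombinant protein yield in mammalian cells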 (primary screen)
System: human HEK293 embryonic kidney cells stably expressing firefly luciferase (HEK-CMV-Luc2-Hygro)
Reagents: single siRNA against human genes, 0.8 pmol siRNA per well
Duration: 72 h
Measured: 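Luciferase light (ONE-Glo) measured on one replicate plate set and viability (CellTiter-Glo) on the other, scaled to a negative control siRNA, with robust z-scores and luciferase per cell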
Direction: total luciferase, z-score and total luciferase, % of control: higher = more reporter protein produced; luciferase per cell, z-score: higher = more reporter output per viable cell
Rule for the call: 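Active when the median/MAD z-score for overall luciferase is greater than 3; a gene was taken forward for validation with new siRNAs if at least two of its three siRNAs passed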
Calls: active = raised luciferase; inactive = no rise
The deposit covers about 59,000 reagents; below is a part drawn at random. In the full data, about 1,510 (2.6%) are marked active. 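Calls use total luciferase alone and ignore viability, so some active siRNAs may act by altering cell number.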 A number with no mark means an inactive call. Reagents against one gene are numbered here. Not all columns of the deposit are shown.

total luciferase, z-score | total luciferase, % of control | luciferase per cell, z-score | gene symbol | siRNA no.
-1.85 | 45.2 | -1.73 | NAT14 | 1
0.293 | 87.7 | 0.0626 | NAT14 | 2
0.433 | 90.5 | 1.08 | NAT14 | 3
2.55 | 133 | 2.62 | PROX1 | 1
-0.356 | 74.8 | -0.806 | PROX1 | 2
0.932 | 100 | 0.533 | PROX1 | 3
-1.24 | 57.1 | -1.11 | SUB1 | 1
-0.236 | 77.2 | 0.191 | SUB1 | 2
-1.88 | 44.4 | -1.85 | SUB1 | 3
0.323 | 88.3 | -0.331 | OR5AR1 | 1
1.75 | 117 | 1.13 | OR5AR1 | 2
-0.433 | 73.3 | 1.13 | OR5AR1 | 3
-0.295 | 76 | -1.03 | SLC7A6 | 1
0.456 | 91 | 0.278 | SLC7A6 | 2
-0.313 | 75.7 | -1.28 | SLC7A6 | 3
-0.164 | 78.6 | 1.19 | MIR22HG | 1
0.942 | 101 | 0.962 | MIR22HG | 2
0.232 | 86.5 | -0.254 | MIR22HG | 3
-0.962 | 62.7 | 0.105 | LINC02910 | 1
-0.203 | 77.9 | 0.228 | LINC02910 | 2
1.04 | 103 | 1.51 | LINC02910 | 3
-0.102 | 79.8 | -0.538 | CHGA | 1
-0.576 | 70.4 | -1.32 | CHGA | 2
0.537 | 92.6 | -0.162 | CHGA | 3

2 of these entries in another layout:
{"gene symbol": "PROX1", "siRNA no.": 2, "total luciferase, z-score": -0.356, "total luciferase, % of control": 74.8, "luciferase per cell, z-score": -0.806}
{"gene symbol": "PROX1", "siRNA no.": 3, "total luciferase, z-score": 0.932, "total luciferase, % of control": 100, "luciferase per cell, z-score": 0.533}
